# Earlier results as cited in US20220000848A1, “APPLICATION OF CHIDAMIDE” (SHENZHEN CHIPSCREEN BIOSCIENCES CO., LTD., priority 2018, published 2022).
# At least one structure is not confirmed: it was looked up by name or label, or the drawing left a doubt.
# Experiments:
# [1] = system: T-cell non-Hodgkin's malignant lymphoma; conditions: phase I clinical trial, monotherapy; cited from earlier work
# [2] = system: B-cell non-Hodgkin's lymphoma; conditions: phase I clinical trial, 3 patients: one progression of disease, two stable disease; cited from earlier work
smiles,measurement,setting,value
Nc1cc(F)ccc1NC(=O)c1ccc(CNC(=O)/C=C/c2cccnc2)cc1 [Chidamide],effective remission rate,[1],80%
same,effectiveness in treatment of B-cell lymphoma,[2],no effectiveness
